## Primary screen of a compound library

The values are deposited in ChEMBL (CHEMBL3988442, “University of Dundee, Small-Polar-MMV Screening Library” (2021)).

Mtb cholesterol medium: 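Growth of Mycobacterium tuberculosis over 4 days (cholesterol / DPPC medium with tyloxapol); the read-out is not stated. Compounds at 50 µM. Higher reads as more growth inhibition (inferred: compounds with an IC50 in retests scored well above the rest). About 69,000 compounds were tested under these conditions; 0.54% (about 370) showed 50% or more at least once.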
Mtb glucose medium: 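Growth of Mycobacterium tuberculosis over 3 days (7H9 medium with glucose and tyloxapol); the read-out is not stated. Compounds at 50 µM. The record gives no direction; compounds that gave an IC50 in retests scored well above the rest, so higher reads as more growth inhibition. Size under these conditions: about 69,000 compounds, about 760 of them at 50% or above in at least one test.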

Values are the deposited “Percent Effect”, in %.
How 0% and 100% were set is not recorded. Most values in the screen are low, and negative values occur.
This is an unselected part of the compounds tested.
Two or more numbers in one place are separate tests of the same structure; such repeats can differ widely.

SMILES | Mtb cholesterol medium | Mtb glucose medium
[H][C@@]12CCN(Cc3ccccc3)C[C@]1([H])CCN(C1CCCCC1)C(=O)C2 | -13.61 | -2.651 & 3.502
COCc1cc(N2CCOC(c3ccc(F)cc3)C2)ncn1 (centres unmarked) | 1.381 | 10.2
CCn1nc(C)c(NC(=O)CN2CCC(c3ccccc3Cl)C2)c1C (centres unmarked) | -26.7 | -6.847
O=C(C(CNCc1cccs1)c1ccccc1)N1CCOCC1 (centres unmarked) | -28.64 | -15.05
COc1ccc(Cn2nnnc2SCC2CCCN(C)C2)cc1 (centres unmarked) | 8.946 | -14.4 & 3.528
Fc1ccc(-c2noc(C3COCCO3)n2)cc1F (centres unmarked) | -0.05428 & 5.194 | 10.81
CCC(NC(=O)CCCN1CCCCC1)c1cn2cccnc2n1 (centres unmarked) | -14.69 & -10.59 | 15.01
[H][C@@]12C[C@@H](Oc3cccnc3)CN1CCN(C(=O)c1ccncc1)C2 | 2.04 | -0.16
COc1ccc(-c2cn([C@H](CO)CC(C)C)nn2)cn1 | 18.75 | -7.667
COc1ccc(OCCCNCCn2cccn2)cc1 | 7.791 | 8.618
O=C(CN1CCc2[nH]c3ccccc3c2C1)NCc1ccco1 | -1.379 | -30.75 & 14.68
N#Cc1ccc(OCC(=O)N2CCCC(n3cccn3)C2)cc1 (centres unmarked) | 32.15 | 22.26
O=C(O)C(F)(F)F.[H][C@@]12CCN(C3CCCC3)C[C@]1([H])[C@H](C(=O)NC1CCC1)CCO2 | 6.788 | 26.81 & 0.2332
O=C(O)C(F)(F)F.O=C(c1ccc[nH]1)N1CCn2cc(CN3CCCC3)nc2C1 | -12.47 | -14.42
CCCc1nnsc1C(=O)NCC1CCN(c2ncccn2)CC1 | -21.9 | 3.351
CCOc1ccccc1OC1CCN(C(=O)c2cnsn2)CC1 | -0.8468 | -38.75 & 1.688
CC(C)n1ccnc1C1CCN(C(=O)c2cc[nH]n2)CC1 | -7.544 | 3.949
CN(Cc1ccco1)C(=O)C1CCCc2ccccc21 (centres unmarked) | -1.552 | 10.33
CC(C)(C)n1ncc2c(=O)[nH]c(N3CCN(CCO)CC3)nc21 | 8.312 | -3.549
CCOc1ccc(Br)cc1-c1cc(N)[nH]n1.Cl | 0.6355 | 1.015
CN(Cc1ccco1)Cc1ccccc1CNC(=O)c1c[nH]nn1 | 4.639 | -6.809 & 6.434
O=C(c1cc(C2CC2)on1)N1CCCC(n2cccn2)C1 (centres unmarked) | -8.59 | -15.72
Cc1ccc(C(=O)NS(C)(=O)=O)cc1-n1cccc1 | -2.161 | 32.2
O=c1[nH]c(N2CCCCC2)nc2nccc(-c3ccc4c(c3)OCO4)c12 | -3.185 | 20.04
CC(C)n1ncc2cc(NC(=O)N3CCSCC3)cnc21 | -6.628 | -0.2952 & -37.18
O=C(O)C(F)(F)F.O=C(O)C(F)(F)F.c1cncc(COCc2nnc3n2CCN(CC2CC2)C3)c1 | -8.032 | -0.4902 & -2.685
CCOc1cccc(C(C)NC(=O)N2CCC3(CC2)OCCO3)c1 (centres unmarked) | 19.27 | 10.04 & 4.4
CS(=O)(=O)N1CCCC(n2nnn(-c3ccccc3)c2=O)C1 (centres unmarked) | -0.6155 & 6.138 | -32.54
Cc1noc(C2CCN(CC(=O)N3CCNC(=O)C3)CC2)n1 | -16.96 | -26.12
COc1ccc2c(c1)c(-c1nc(C)ncc1CN)cn2C | 3.288 | -1.111
[H][C@]12CCN(C(=O)NC(C)C)CC[C@@]1([H])S(=O)(=O)N(Cc1cccc(Cl)c1)C2 | -15.9 | -25.73
COc1cc(OC)nc(N2CCC3(CC2)OCCCC3O)n1 (centres unmarked) | 13.23 | 13.73
[H][C@@]12CN(C(=O)c3cccc(C)n3)C[C@]1([H])[C@@H]2CC(=O)N1CCCC1 | 14.35 | 11.66
CCc1nnc2n1CCN(CC(=O)N1CCc3ccccc3C1)C2 | -5.729 | -47.19
CC(C(=O)N1CCCC1)n1nc(-c2cccs2)cc(N)c1=O (centres unmarked) | -2.066 | 23.88
CC(=O)c1sc2nc3c(c(C(F)(F)F)c2c1N)CN(C(C)=O)CC3 | -0.715 | -2.472
CC(=O)N1CCCC1c1nccnc1NCc1cccnc1 (centres unmarked) | 15.32 | -3.937
Cc1noc(C2CCCN(C(=O)c3ccc(Cl)cc3F)C2)n1 (centres unmarked) | 22.43 | 31.37
Clc1ccc2nc(N3CCC(NCCCC4CCOC4)CC3)sc2c1 (centres unmarked) | -10.29 | 1.498
Cc1cnc(CN(C)C2CCN(Cc3nccn3C)C2)o1 (centres unmarked) | 5.9 | 16.46
O=C(c1cnc2ccccc2c1)N1CCCC(O)(CN2CCCC2)C1 (centres unmarked) | -14.49 | -18.09
NC(=O)C1(Cc2ccccc2-c2cncnc2)CCCNC1 (centres unmarked) | -5.055 & -1.119 | 6.608

Some entries from above, unchanged:

| SMILES | Mtb cholesterol medium | Mtb glucose medium |
|---|---|---|
| `[H][C@@]12CCN(Cc3ccccc3)C[C@]1([H])CCN(C1CCCCC1)C(=O)C2` | -13.61 | -2.651 & 3.502 |
| `O=C(O)C(F)(F)F.O=C(c1ccc[nH]1)N1CCn2cc(CN3CCCC3)nc2C1` | -12.47 | -14.42 |
| `N#Cc1ccc(OCC(=O)N2CCCC(n3cccn3)C2)cc1` (centres unmarked) | 32.15 | 22.26 |
| `CC(=O)N1CCCC1c1nccnc1NCc1cccnc1` (centres unmarked) | 15.32 | -3.937 |
| `[H][C@@]12CN(C(=O)c3cccc(C)n3)C[C@]1([H])[C@@H]2CC(=O)N1CCCC1` | 14.35 | 11.66 |